Results on two substances are retold here after paper PMC9054839.

Protein sequences, listed by entry. Tags and fused reporters are not part of them. Lines headed by an entry give the natural chain unless they say otherwise; changes in a name come on top. Chains listed by the source or under a name are the forms on record and can include a tag or linker. Residues count along the entry.
UniProt P26039: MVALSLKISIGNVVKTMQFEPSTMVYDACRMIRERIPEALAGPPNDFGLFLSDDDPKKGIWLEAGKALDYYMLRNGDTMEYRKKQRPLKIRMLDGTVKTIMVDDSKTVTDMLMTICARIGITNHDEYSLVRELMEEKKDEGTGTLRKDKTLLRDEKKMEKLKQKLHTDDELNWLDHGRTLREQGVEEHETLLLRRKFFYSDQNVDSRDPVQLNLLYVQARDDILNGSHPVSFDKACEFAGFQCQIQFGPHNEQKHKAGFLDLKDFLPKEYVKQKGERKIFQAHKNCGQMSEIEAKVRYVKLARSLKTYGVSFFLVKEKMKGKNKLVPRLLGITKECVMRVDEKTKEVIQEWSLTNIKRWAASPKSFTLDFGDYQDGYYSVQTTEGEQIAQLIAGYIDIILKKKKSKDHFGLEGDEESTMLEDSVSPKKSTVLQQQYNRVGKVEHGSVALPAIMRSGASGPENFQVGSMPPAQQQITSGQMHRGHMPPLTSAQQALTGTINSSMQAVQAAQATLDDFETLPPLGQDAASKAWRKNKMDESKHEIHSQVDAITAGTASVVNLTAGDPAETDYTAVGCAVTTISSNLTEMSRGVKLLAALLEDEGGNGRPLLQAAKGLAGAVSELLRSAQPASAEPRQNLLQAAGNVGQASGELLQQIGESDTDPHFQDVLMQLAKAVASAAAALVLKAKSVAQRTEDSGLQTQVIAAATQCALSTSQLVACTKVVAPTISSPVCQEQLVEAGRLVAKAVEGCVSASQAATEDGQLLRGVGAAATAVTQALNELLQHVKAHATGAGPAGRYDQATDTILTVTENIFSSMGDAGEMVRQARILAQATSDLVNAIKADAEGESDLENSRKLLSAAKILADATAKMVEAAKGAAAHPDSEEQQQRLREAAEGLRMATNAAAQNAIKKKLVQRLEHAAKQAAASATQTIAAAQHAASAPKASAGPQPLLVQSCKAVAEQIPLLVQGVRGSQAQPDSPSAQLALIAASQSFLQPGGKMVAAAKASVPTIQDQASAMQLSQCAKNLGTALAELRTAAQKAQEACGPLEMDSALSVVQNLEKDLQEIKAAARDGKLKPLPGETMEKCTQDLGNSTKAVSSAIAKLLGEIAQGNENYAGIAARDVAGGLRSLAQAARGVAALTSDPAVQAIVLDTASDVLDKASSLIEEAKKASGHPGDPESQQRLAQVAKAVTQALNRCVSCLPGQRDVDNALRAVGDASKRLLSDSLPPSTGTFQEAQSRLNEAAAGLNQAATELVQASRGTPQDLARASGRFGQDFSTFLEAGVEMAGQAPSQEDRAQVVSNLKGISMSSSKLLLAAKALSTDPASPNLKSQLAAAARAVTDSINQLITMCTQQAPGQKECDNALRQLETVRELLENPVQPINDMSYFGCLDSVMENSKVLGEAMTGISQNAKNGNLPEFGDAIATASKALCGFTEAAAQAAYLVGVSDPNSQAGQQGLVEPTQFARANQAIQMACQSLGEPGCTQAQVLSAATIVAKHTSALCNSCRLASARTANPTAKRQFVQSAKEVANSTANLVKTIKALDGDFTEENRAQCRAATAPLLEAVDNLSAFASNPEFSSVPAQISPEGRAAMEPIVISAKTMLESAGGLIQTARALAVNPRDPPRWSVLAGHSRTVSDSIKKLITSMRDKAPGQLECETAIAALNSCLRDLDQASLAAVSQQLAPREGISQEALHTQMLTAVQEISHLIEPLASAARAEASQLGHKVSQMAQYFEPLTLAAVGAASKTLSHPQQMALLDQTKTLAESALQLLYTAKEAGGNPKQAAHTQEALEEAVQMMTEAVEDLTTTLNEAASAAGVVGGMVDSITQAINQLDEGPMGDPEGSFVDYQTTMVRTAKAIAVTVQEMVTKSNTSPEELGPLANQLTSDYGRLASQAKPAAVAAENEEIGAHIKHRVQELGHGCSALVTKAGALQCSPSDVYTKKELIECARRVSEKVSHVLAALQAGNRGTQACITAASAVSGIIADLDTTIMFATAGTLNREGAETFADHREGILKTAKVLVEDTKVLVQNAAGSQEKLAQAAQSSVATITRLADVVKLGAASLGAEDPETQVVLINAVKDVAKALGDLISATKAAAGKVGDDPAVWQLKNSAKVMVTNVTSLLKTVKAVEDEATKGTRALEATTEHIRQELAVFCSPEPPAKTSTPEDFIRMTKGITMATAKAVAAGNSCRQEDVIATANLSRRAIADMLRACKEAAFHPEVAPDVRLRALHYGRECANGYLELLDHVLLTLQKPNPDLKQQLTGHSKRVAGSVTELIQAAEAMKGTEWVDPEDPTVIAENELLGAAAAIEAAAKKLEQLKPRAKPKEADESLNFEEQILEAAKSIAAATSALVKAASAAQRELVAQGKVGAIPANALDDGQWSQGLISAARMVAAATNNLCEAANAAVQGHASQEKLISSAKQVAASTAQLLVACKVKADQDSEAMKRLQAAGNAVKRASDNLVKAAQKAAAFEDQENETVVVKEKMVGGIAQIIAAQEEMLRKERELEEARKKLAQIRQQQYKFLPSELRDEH
GST-paxillin 161–605 (P49023, form named): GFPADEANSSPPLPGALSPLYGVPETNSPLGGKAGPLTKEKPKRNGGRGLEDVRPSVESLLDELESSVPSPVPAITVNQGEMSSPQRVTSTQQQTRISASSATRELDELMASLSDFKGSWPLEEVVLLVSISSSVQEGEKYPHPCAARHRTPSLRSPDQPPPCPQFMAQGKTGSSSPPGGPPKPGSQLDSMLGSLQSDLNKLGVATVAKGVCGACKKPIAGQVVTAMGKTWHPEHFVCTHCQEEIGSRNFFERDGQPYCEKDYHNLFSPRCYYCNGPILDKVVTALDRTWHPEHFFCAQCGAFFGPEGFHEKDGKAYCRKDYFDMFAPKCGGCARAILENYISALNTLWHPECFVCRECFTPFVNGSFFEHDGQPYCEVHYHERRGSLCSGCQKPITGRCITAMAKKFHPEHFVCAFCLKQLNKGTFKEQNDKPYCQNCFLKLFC
UniProt P05106, residues 742-788: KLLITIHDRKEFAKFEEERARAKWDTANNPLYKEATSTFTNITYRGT
UniProt Q8VI36: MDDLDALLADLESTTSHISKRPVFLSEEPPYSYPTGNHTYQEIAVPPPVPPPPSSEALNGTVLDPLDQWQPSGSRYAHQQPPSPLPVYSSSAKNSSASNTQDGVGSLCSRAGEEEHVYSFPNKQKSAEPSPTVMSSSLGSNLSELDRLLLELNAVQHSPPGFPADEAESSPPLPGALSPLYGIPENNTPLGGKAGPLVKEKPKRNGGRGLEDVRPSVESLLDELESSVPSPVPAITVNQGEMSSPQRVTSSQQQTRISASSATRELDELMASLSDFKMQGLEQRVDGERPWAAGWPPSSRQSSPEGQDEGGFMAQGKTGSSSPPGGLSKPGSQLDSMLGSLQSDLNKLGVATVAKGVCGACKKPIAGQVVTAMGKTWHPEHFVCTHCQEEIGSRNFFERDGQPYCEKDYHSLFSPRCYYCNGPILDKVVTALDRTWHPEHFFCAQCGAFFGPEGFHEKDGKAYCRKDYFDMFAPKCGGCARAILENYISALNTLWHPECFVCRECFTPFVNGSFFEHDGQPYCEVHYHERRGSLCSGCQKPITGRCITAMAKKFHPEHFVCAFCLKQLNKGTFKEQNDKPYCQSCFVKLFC

In test [1] the target is C-terminally ypet-tagged full-length talin WT (mouse) (UniProt P26039). The test is described as follows: co-IP; anti-GFP immunoprecipitation (µMACS GFP Isolation Kit) of ypet-talin from talin^1/2dKO fibroblasts re-adhered on fibronectin for 4 h, cross-linked with 0.5 mM DSP, lysed in MPER buffer; western blot.
Test [2] concerns the target ypet-tagged talin-1 R11mut (T2126E/K2133E) (mouse) (UniProt P26039). The description is as above.
Test [3] deals with ypet-tagged talin-1 R2 mut (A680E/K687E) (mouse) (UniProt P26039). The description is as above.
Test [4] addresses GST-paxillin 161–605 (human) (UniProt P49023). The test is described as follows: pull-down; GST-paxillin (full length or fragments) on glutathione-Sepharose 4B beads, talin or talin fragments as prey; 25 mM Tris-HCl pH 7.5, 150 mM NaCl, 0.5 mM TCEP, 0.01 or 0.1% NP40, 4 °C; western blot or Coomassie; both purified. (A western blot detects proteins with antibodies after separation by electrophoresis.)

Test [5] deals with GST-integrin beta3 cytoplasmic tail (UniProt P05106). The test is described as follows: pull-down; GST-integrin-β3 CT on glutathione-Sepharose 4B beads, full-length talin as prey; 25 mM Tris-HCl pH 7.5, 150 mM NaCl, 0.5 mM TCEP, 0.01 or 0.1% NP40, 4 °C; both purified.

These are yes or no findings as the source states them, for the method shown. For some assays here: Binding seen in cells or lysates may run through a third protein. Some results given as binding are weak or reduced against the parent protein; the word gives no strength.

In the case of “paxillin (endogenous, fibroblasts) (from UniProt Q8VI36 1-591)”, the binding entry in test [1], in test [2] and in test [3] was “binds” in each case.
“constitutively activated full-length talin mutant tlnM3 (M319A, T1767L, E1770K) (from UniProt P26039 1-2541)”: the binding entry was “no binding” in test [4] and “binds” in test [5].
